Results as given in US20130004519A1.
No constants are given. Whether binding was seen depends on the method and setting. In cells and extracts the contact can be indirect. Some entries that bind do so weakly or less than the wild type. Where a sequence is shown, tags or fusion partners need not be part of it.

By UniProt entry, the sequences of proteins in these tests, tags left out. Residues count along the entry.
UniProt P24821, residues 23-2201: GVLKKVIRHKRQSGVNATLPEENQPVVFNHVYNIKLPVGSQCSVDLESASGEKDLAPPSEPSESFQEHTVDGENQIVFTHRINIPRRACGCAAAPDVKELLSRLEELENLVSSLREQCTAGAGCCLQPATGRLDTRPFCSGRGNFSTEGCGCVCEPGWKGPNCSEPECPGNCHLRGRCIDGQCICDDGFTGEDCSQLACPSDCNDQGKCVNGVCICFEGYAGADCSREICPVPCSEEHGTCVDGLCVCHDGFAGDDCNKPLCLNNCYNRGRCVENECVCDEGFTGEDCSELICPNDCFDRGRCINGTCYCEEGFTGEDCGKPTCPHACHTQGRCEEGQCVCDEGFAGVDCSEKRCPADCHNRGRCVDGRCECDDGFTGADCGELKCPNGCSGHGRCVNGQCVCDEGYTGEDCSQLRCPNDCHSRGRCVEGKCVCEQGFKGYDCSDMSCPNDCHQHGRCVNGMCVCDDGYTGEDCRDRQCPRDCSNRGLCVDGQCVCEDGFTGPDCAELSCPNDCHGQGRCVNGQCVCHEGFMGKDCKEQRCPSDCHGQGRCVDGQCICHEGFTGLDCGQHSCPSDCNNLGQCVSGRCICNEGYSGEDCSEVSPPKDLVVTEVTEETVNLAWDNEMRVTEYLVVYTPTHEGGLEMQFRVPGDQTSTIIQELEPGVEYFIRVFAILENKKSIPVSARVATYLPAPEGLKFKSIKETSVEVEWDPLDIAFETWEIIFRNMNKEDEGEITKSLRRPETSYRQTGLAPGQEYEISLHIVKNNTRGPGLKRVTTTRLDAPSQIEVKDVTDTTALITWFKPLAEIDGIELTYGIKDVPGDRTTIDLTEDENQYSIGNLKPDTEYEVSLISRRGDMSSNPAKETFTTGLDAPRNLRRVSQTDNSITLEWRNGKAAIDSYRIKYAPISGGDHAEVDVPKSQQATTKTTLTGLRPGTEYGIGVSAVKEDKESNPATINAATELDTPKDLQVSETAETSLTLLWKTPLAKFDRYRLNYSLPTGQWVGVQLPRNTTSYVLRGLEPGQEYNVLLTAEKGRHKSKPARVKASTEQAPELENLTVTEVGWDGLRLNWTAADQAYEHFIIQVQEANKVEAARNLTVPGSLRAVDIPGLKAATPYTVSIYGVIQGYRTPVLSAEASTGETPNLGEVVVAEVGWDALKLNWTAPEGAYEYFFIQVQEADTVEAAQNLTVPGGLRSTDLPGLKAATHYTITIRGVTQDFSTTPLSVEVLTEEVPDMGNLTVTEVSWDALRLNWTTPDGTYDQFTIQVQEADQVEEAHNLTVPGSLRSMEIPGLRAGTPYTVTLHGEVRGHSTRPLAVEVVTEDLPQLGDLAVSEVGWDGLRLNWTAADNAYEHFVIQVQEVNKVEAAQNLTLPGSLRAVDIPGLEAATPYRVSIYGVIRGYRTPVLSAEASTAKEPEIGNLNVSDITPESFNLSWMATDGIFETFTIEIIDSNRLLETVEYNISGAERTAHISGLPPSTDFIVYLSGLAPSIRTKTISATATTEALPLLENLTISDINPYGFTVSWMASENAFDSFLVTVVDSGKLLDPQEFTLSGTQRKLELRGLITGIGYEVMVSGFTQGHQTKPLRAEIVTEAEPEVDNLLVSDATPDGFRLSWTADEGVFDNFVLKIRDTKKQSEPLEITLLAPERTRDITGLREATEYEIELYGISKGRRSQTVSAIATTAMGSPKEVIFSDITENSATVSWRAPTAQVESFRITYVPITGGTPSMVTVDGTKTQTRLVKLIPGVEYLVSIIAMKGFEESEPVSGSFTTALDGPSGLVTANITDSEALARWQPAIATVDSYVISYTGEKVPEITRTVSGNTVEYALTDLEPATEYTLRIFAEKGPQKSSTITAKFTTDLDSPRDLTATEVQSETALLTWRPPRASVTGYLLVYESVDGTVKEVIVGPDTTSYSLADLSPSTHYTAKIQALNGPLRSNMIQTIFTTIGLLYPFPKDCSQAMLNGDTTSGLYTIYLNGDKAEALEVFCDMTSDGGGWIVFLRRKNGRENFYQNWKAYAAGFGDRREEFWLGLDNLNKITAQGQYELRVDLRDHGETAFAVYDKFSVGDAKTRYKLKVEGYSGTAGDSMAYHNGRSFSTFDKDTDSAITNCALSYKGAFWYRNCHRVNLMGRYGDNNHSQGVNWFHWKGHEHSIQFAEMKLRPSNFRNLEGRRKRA

Target: T1, SMOC1-myc-DDK-his (human) (UniProt Q9H4F8)
T1 sequence: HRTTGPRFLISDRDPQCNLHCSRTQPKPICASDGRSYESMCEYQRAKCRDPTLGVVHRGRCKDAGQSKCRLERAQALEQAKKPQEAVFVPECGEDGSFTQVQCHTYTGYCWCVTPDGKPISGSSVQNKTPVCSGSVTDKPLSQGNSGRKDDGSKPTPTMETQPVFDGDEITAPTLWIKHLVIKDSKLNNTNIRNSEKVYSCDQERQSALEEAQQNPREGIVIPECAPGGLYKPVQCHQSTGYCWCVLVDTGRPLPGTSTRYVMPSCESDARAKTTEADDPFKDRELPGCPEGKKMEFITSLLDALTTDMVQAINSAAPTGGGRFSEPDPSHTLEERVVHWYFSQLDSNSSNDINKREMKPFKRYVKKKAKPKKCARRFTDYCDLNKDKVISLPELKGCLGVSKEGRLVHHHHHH
Assay: co-immunoprecipitation from COS cell culture medium with the anti-tenascin-C antibody, western blot probed for SMOC1

## His-tagged human tenascin-C (from UniProt P24821 23-2201)
  binding: binds
